Results reported in US6080837 (dated 2000).

Experiment: general procedure: hybrid (solid and solution phase) peptide synthesis; Sasrin-resin (2-methoxy-4-alkoxybenzyl alcohol copolystyrene 1% divinylbenzene); XAL-BHA for Fragment I; HBTU/HOBt/DIPEA; BOP/HOBt/DIPEA
[1] = coupling step, analytical HPLC (210 nm), capillary electrophoresis for final product

Row | Substance | crude HPLC purity (whole synthesis, 210 nm) [%] | step yield (coupling step) | crude HPLC purity [1] | other results
1 | Ac-[His(Trt)]S(tBu)D(OtBu)AVFT(tBu)E(OtBu)-OH | 95 |  |  | 
2 | Fmoc-AK(Boc)KY(tBu)LNDLK(Boc)K(Boc)GGT(tBu)-NH2 |  | 100% | about70% | 
3 | Fmoc-LK(Boc)K(Boc)GGT(tBu)-NH2 | 94.5 |  |  | 
4 | Fmoc-NY(tBu)T(tBu)K(Boc)LR(Pmc)K(Boc)Q[Nle]A-OH | 91 |  |  | 
5 | Fmoc-NY(tBu)T(tBu)K(Boc)LR(Pmc)K(Boc)Q[Nle]AAK(Boc)KY(tBu)LNDLK(Boc)K(Boc)GGT(tBu)-NH2 |  | about 79% | about 69% | 
6 | cyclo(Lys^21 --Asp^25)-Fmoc-Ala^19 --Lys(Boc)^20 --Lys^21 --Tyr(tBu)^22 --Leu^23 --Asn^24 --Asp^25 k--OH |  |  |  | step yield (late stage modification step): 91.1%; final HPLC purity (whole synthesis, analytical HPLC (210 nm), capillary electrophoresis for final product): >97%; isolated yield (whole synthesis, overall, on starting resin): 33.7%

[ ]: non-standard residue; d: D form. The star is where a group is joined. His(Trt) = N[C@@H](Cc1cn(C(c2ccccc2)(c2ccccc2)c2ccccc2)cn1)C(=O)O; Pmc = Cc1c(C)c(S(=O)(=O)*)c(C)c2c1OC(C)(C)CC2; Fmoc = O=C(OCC1c2ccccc2-c2ccccc21)*; Nle = CCCC[C@H](N)C(=O)O; Boc = CC(C)(C)OC(=O)*; OtBu = CC(C)(C)O*; tBu = CC(C)(C)*
